Assay results reported in EP4748860A1 (Kanglitai Biomedical (Qingdao) Co., Ltd., dated 2026).
No constants are given. Whether binding was seen depends on the method and setting. Some entries that bind do so weakly or less than the wild type.

Experiments:
[1] = molecular target: HER2 protein expressed by SKBR3 cells (UniProt P04626); assay: flow cytometry on SKBR3 cells
[2] = molecular target: HER2-His recombinant protein (human) (UniProt P04626); assay: ELISA, HER2-His coated
[3] = molecular target: human HER2 protein (coated antigen of the specificity ELISA) (human) (UniProt P04626); assay: ELISA, antigen coated at 200 ng per well, antibody 0.2 µg per well

Binder | binding [1] | binding [2] | binding [3]
HER2-8 (VHH, not shown: small tags and cut ends) VHH: QVQLQESGGGLVQAGGSLRLSCAASGRTFSGAGVGWFRQDPEKEREFVAAIAWSGGSTRYADSVKGRFTISRDNTENTVFLQMNNLRPEDTAVYYCAATRRFYSGLTYTQRDVYDNWGQGTQVTVSS | binds |  | 
HER2-10 (VHH, not shown: small tags and cut ends) VHH: QVQLQESGGGLVQPGGSLRLSCTAARNIFGRNVMGWFRQAPGKQREFVAHITGGSAVIYATSVKGRFTISRDNAKNTVYLQMNNLTLDDTAVYFCRAVNDDLWGQGTQVTVSS | binds |  | 
HER2-11 (VHH, not shown: small tags and cut ends) VHH: QVQLQESGGGLVQAGGSLRLSCAASGHTVSRNMMGWFRQAPGKEREFVSAIAWNGEDTYYAESVEGRFTISKDNVKNTIYLQMNSLKPEDTAVYYCAASLFRLWNSATAGNNRVYHYWGQGTQVTVSS | binds |  | 
HER2-38 (VHH, not shown: small tags and cut ends) VHH: QLQESGGGLVQAGDSLRLSCAASERTFARYVMGWFRQAPGKDREFVAHIYSSGSTAYEGSVKGRFTISRDNAKNTVYLQMNNLKPEDTAVYYCAARPRDTVWTSSASWGQGTQVTVSS | binds |  | 
HER2-8-hFc (Fc fusion, VHH gene cloned into pABG1-Fc (human Fc fragment), expressed in FreeStyle 293-F cells, Protein A purified; also called HER2-8-Fc; not shown: human Fc fragment of vector pABG1-Fc) QVQLQESGGGLVQAGGSLRLSCAASGRTFSGAGVGWFRQDPEKEREFVAAIAWSGGSTRYADSVKGRFTISRDNTENTVFLQMNNLRPEDTAVYYCAATRRFYSGLTYTQRDVYDNWGQGTQVTVSS | binds | binds | binds
HER2-10-hFc (Fc fusion, VHH gene cloned into pABG1-Fc (human Fc fragment), expressed in FreeStyle 293-F cells, Protein A purified; also called HER2-10-Fc; not shown: human Fc fragment of vector pABG1-Fc) QVQLQESGGGLVQPGGSLRLSCTAARNIFGRNVMGWFRQAPGKQREFVAHITGGSAVIYATSVKGRFTISRDNAKNTVYLQMNNLTLDDTAVYFCRAVNDDLWGQGTQVTVSS | binds | binds | binds
HER2-11-hFc (Fc fusion, VHH gene cloned into pABG1-Fc (human Fc fragment), expressed in FreeStyle 293-F cells, Protein A purified; also called HER2-11-Fc; not shown: human Fc fragment of vector pABG1-Fc) QVQLQESGGGLVQAGGSLRLSCAASGHTVSRNMMGWFRQAPGKEREFVSAIAWNGEDTYYAESVEGRFTISKDNVKNTIYLQMNSLKPEDTAVYYCAASLFRLWNSATAGNNRVYHYWGQGTQVTVSS | binds | binds | binds
